From the supplement of paper PMC10849652
The other results are listed elsewhere or left out.

Sequences of proteins named here, by UniProt entry; tags and fusion partners are left off. A change or cut given only in a name is not applied to a line headed by its entry.
UniProt Q9UJX2, whole entry, looked up: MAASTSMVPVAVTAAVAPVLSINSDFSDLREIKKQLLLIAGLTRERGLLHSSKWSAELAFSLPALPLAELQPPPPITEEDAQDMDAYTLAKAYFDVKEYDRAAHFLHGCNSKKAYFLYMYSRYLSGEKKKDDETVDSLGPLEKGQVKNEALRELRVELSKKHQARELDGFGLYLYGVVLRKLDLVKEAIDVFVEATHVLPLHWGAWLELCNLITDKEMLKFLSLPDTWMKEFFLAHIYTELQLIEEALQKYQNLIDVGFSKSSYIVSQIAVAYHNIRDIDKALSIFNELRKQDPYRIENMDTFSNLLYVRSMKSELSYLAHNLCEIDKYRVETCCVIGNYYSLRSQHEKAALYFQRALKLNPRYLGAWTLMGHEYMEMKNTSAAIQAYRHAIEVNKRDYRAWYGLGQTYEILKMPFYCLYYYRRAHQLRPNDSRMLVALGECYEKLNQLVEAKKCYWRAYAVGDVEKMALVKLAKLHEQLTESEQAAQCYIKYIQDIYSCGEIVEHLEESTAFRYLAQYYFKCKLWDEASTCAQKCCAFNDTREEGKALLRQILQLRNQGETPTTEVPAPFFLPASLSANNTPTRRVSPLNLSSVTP
UniProt P41208: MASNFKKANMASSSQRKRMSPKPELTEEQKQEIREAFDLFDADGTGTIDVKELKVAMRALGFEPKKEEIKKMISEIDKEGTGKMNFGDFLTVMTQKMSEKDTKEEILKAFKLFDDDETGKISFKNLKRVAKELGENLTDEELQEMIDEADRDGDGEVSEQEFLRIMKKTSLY
UniProt Q8N2Z9: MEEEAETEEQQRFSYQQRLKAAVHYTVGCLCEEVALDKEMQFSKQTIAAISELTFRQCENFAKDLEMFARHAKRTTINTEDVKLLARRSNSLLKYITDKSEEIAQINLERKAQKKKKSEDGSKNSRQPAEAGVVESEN
UniProt Q7L3B6: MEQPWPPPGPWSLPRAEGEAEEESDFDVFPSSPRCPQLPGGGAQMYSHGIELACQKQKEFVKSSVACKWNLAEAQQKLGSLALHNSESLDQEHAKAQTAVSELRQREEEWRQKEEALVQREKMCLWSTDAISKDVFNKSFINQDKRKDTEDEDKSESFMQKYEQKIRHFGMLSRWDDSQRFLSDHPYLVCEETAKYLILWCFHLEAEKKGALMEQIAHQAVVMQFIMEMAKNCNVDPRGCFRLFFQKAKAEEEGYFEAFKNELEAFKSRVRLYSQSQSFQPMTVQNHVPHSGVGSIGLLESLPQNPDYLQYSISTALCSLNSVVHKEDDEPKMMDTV
UniProt P57076: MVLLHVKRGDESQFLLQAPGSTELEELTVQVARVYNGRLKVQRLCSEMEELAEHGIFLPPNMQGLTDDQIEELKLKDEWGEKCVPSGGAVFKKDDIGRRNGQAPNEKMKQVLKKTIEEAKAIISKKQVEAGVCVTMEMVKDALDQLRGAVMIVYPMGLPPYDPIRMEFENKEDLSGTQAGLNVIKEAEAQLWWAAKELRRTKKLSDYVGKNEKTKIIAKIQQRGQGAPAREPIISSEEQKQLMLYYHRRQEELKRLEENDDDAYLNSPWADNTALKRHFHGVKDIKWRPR
UniProt Q9BWU1: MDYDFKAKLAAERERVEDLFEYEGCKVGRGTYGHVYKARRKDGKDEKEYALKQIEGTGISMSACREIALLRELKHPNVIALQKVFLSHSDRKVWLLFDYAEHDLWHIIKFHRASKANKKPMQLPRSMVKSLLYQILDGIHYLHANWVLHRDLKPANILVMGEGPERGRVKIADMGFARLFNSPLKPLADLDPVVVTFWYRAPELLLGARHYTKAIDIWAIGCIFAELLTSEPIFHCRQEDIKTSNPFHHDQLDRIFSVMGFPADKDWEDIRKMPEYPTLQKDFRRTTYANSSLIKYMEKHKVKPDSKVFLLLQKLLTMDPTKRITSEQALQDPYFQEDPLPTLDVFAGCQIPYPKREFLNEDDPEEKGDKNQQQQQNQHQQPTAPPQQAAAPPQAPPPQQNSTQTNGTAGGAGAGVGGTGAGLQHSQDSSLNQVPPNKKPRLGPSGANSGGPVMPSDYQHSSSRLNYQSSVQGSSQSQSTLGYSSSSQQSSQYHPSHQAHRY
UniProt Q9NYV4, whole entry, looked up: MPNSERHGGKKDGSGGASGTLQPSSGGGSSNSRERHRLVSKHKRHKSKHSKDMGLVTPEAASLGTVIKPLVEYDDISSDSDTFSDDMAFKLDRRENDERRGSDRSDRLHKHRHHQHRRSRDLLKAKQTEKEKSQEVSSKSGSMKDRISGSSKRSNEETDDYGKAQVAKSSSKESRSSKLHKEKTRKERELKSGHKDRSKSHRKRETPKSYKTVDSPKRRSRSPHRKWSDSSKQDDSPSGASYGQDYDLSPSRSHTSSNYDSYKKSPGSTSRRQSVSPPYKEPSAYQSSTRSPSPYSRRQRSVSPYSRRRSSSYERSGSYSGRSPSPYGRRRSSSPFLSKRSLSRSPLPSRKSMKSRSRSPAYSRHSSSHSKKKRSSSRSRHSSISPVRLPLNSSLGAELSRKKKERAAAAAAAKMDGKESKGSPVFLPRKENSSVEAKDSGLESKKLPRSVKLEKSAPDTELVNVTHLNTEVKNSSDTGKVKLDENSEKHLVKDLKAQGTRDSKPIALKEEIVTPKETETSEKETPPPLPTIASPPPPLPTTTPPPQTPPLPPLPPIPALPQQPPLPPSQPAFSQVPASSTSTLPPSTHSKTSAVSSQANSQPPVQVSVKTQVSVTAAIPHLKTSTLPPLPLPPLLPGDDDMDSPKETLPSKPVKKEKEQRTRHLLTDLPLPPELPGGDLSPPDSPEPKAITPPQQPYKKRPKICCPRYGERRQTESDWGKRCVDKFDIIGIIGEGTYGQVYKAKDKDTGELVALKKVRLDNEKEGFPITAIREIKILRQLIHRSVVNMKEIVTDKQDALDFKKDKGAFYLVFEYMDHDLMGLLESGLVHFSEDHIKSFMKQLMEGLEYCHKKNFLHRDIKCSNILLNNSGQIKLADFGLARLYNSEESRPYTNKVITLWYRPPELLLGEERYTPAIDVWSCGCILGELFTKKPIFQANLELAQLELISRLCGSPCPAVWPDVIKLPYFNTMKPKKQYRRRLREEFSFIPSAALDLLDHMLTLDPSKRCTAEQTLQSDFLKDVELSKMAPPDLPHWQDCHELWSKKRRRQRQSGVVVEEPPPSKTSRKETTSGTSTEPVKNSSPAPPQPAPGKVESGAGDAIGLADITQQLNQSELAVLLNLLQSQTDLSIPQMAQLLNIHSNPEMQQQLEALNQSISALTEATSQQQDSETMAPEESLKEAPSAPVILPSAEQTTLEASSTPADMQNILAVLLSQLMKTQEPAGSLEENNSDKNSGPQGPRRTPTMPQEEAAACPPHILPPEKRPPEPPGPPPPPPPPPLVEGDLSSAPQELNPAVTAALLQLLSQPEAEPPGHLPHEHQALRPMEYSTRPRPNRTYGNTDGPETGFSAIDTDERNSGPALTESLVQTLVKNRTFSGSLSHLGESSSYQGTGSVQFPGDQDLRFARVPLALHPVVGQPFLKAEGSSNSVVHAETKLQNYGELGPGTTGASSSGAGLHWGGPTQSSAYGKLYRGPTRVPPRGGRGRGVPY
UniProt Q6ZMG9: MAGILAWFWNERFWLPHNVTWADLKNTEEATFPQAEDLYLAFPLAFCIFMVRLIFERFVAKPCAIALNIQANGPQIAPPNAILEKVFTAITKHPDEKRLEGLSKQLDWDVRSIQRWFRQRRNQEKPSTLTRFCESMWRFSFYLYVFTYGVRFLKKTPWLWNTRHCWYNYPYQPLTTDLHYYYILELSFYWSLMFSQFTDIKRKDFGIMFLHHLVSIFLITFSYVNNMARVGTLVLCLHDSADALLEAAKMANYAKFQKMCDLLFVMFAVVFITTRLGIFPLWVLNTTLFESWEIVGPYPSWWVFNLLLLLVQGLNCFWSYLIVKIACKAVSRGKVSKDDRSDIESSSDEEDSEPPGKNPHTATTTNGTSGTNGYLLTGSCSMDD
UniProt Q9BS16: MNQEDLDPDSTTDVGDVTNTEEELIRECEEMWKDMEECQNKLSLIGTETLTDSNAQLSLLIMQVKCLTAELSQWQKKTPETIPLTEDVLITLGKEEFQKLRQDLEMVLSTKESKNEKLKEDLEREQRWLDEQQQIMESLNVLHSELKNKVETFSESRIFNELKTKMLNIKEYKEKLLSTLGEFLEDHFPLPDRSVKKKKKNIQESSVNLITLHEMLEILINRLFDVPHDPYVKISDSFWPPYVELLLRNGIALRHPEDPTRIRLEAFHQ
UniProt Q12834, whole entry, looked up: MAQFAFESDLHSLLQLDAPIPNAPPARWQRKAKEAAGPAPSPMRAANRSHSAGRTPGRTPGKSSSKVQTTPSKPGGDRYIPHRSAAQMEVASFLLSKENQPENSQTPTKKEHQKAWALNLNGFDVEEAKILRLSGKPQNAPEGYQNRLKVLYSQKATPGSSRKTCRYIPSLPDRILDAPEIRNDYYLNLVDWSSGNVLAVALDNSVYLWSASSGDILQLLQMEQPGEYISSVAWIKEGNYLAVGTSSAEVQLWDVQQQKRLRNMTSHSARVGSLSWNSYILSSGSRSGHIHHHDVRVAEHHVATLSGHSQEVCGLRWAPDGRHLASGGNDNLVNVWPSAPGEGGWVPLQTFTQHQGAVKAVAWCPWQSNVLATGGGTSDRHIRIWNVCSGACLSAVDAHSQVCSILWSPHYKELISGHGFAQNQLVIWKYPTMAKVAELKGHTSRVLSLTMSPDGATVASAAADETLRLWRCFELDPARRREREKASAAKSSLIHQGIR
UniProt Q96G28: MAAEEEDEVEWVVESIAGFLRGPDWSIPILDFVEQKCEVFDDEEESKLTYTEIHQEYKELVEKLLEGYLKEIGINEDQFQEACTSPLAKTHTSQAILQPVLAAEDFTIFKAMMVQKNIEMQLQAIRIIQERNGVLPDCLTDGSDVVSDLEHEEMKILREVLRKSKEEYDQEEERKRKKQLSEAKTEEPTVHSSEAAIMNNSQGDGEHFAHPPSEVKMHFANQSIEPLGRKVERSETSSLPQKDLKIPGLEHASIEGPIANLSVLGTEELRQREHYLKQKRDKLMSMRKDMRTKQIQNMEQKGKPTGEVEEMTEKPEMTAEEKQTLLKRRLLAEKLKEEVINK
UniProt Q00536: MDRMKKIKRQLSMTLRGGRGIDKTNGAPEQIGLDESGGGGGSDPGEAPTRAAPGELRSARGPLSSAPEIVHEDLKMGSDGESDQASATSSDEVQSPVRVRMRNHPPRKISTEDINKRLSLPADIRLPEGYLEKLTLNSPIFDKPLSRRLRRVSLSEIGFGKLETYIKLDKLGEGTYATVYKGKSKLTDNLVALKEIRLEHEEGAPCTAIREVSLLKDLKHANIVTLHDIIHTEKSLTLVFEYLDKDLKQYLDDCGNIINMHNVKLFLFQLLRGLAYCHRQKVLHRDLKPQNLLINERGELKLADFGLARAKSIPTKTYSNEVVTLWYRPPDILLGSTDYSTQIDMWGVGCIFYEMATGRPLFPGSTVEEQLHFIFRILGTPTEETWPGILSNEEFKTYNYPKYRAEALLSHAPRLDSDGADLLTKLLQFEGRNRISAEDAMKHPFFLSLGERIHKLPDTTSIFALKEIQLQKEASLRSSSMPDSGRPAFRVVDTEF
UniProt O95319: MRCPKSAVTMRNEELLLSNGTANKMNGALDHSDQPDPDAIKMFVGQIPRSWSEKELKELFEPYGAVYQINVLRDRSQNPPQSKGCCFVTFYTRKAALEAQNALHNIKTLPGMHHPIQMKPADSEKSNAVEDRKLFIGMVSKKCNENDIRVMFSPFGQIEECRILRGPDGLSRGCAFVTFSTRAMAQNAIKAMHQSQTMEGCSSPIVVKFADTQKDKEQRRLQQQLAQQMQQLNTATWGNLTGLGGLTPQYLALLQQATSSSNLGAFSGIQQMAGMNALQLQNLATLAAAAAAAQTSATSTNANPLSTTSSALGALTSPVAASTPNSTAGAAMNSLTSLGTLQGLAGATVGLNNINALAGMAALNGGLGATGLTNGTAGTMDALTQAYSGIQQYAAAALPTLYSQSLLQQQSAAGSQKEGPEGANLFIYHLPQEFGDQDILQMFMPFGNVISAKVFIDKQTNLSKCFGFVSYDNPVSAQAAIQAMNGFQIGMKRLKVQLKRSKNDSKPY
UniProt Q9C0F1: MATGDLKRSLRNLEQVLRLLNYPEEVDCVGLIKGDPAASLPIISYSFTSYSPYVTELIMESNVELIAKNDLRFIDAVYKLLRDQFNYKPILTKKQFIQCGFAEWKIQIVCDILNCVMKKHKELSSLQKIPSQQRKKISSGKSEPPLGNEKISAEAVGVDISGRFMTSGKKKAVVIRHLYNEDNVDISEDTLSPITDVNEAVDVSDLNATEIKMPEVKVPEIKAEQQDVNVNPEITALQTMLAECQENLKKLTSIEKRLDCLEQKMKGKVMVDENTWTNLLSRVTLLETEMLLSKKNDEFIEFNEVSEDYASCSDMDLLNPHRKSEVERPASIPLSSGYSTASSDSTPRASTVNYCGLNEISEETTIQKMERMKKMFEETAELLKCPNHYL
UniProt P42773: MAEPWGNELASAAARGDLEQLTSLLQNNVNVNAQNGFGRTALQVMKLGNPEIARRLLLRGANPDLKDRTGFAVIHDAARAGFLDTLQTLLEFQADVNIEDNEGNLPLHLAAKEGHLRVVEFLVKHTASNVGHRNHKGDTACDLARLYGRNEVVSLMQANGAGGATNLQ

How the values were obtained:
Assay in all cases: log2 fold change, soluble protein after heating vs DMSO (PISA); higher = thermal stabilisation; K562 lysate, 10 uM; active = over 0.2 and 3.5 SD of the protein, either way, in both replicates (recomputed)
[1] = compound: Cc1cn(-c2cc(NC(=O)c3ccc(C)c(Nc4nccc(-c5cccnc5)n4)c3)cc(C(F)(F)F)c2)cn1 [nilotinib]
Outline: (§1)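 Pellets of K562 cells were dounce-homogenised in PBS pH 7.4 with 1 mM MgCl2, and the crude extract was held at 1 mg/mL protein for a 30 min treatment with 10 μM compound. Aliquots were heated for 3 min over 48°C-58°C and pooled before NP-40 was added to 0.5% at 4°C. The supernatant from 21,000xg for 90 min was quantified by TMTpro 16plex LC-MS/MS with channel sums equalised. Values are reported from duplicates as log-two fold change in thermal stability relative to solvent controls.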

[2] = compound: Cc1nc(Nc2n[nH]c3c2CN(C(=O)N[C@H](CN(C)C)c2ccccc2)C3(C)C)c2sccc2n1
Outline: as §1

[3] = compound: Cc1nc(Nc2ncc(C(=O)Nc3c(C)cccc3Cl)s2)cc(N2CCN(CCO)CC2)n1 [dasatinib]
Outline: as §1

[4] = compound: Cc1ncc(-c2ccnc(Nc3ccc(S(C)(=O)=O)cc3)n2)n1C(C)C
Outline: as §1

[5] = compound: Cn1cc(-c2ccc3c(c2)CCN3C(=O)Cc2cccc(C(F)(F)F)c2)c2c(N)ncnc21
Outline: as §1

[6] = compound: Cn1cc(CNCC2CCN(c3ncc(C(=O)NO)cn3)CC2)c2ccccc21 [quisinostat]
Outline: as §1

[7] = compound: Cn1cncc1[C@@](N)(c1ccc(Cl)cc1)c1ccc2c(c1)c(-c1cccc(Cl)c1)cc(=O)n2C [tipifarnib]
Outline: as §1

[8] = compound: NC(=O)Nc1cc(-c2cccc(F)c2)sc1C(=O)N[C@H]1CCCNC1
Outline: as §1

[9] = compound: NC(=O)c1cnc(N[C@@H]2CCCC[C@@H]2N)nc1Nc1cccc(-n2nccn2)c1
Outline: as §1

[10] = compound: NC1(c2ccc(-c3nc4ccn5c(=O)[nH]nc5c4cc3-c3ccccc3)cc2)CCC1
Outline: as §1

[11] = compound: NCC(=O)Nc1ccc(-n2nc(C(F)(F)F)cc2-c2ccc3c(ccc4ccccc43)c2)cc1
Outline: as §1

[12] = compound: O=C(CCCCCCC(=O)Nc1ccccc1)NO [vorinostat]
Outline: as §1

[13] = compound: O=C(O)c1ccc2c(c1)nc(Nc1cccc(Cl)c1)c1ccncc12 [silmitasertib]
Outline: as §1

[14] = compound: O=C1NC(=O)C(c2cnc3ccccn23)=C1c1cn2c3c(cc(F)cc13)CN(C(=O)N1CCCCC1)CC2
Outline: as §1

[15] = compound: c1cn2cc(-c3ccc4cn[nH]c4c3)nc(Nc3ccc(N4CCOCC4)cc3)c2n1 [entospletinib]
Outline: as §1

Target | log2 fold change [1] | log2 fold change [2] | log2 fold change [3] | log2 fold change [4] | log2 fold change [5] | log2 fold change [6] | log2 fold change [7] | log2 fold change [8] | log2 fold change [9] | log2 fold change [10] | log2 fold change [11] | log2 fold change [12] | log2 fold change [13] | log2 fold change [14] | log2 fold change [15]
CDC23 (UniProt Q9UJX2) | inactive: 0.017 | inactive: -0.005 | inactive: -0.042 | inactive: -0.05 | inactive: 0.021 | inactive: 0.023 | inactive: 0.053 | inactive: -0.004 | inactive: 0.012 | inactive: 0.003 | inactive: -0.012 | inactive: -0.149 | inactive: 0.013 | inactive: 0.017 | inactive: 0.012
CETN2 (UniProt P41208) | inactive: -0.026 | inactive: 0.037 | inactive: -0.016 | inactive: -0.004 | inactive: 0.002 | inactive: 0.074 | inactive: 0.008 | inactive: -0.001 | inactive: -0.005 | inactive: -0.026 | inactive: 0.047 | inactive: 0.009 | inactive: -0.037 | inactive: -0.071 | inactive: 0
CENPS (UniProt Q8N2Z9) | inactive: -0.194 | inactive: 0.089 | inactive: -0.048 | inactive: 0.065 | inactive: -0.013 | inactive: -0.051 | inactive: 0.055 | inactive: 0.049 | inactive: 0.077 | inactive: -0.022 | inactive: 0.059 | inactive: 0.019 | inactive: 0.054 | inactive: -0.001 | inactive: 0.021
CDC37L1 (UniProt Q7L3B6) | inactive: 0.032 | inactive: 0.05 | inactive: -0.034 | inactive: -0.009 | inactive: 0.042 | inactive: -0.043 | inactive: -0.105 | inactive: 0.004 | inactive: 0.006 | inactive: 0.007 | inactive: 0.012 | inactive: -0.161 | inactive: 0.017 | inactive: -0.039 | inactive: 0.018
CDC42 isoform 1 (UniProt P60953) | inactive: -0.008 | inactive: 0.022 | inactive: 0.007 | inactive: 0.037 | inactive: -0.043 | inactive: -0.117 | inactive: -0.004 | inactive: -0.088 | inactive: 0.02 | inactive: -0.041 | inactive: 0.029 | inactive: 0.076 | inactive: 0.006 | inactive: -0.068 | inactive: -0.031
CFAP298 (UniProt P57076) | inactive: -0.02 | inactive: -0.008 | inactive: 0 | inactive: 0.027 | inactive: 0.044 | inactive: -0.048 | inactive: -0.009 | inactive: 0.028 | inactive: 0.006 | inactive: -0.009 | inactive: -0.014 | inactive: -0.126 | inactive: 0.028 | inactive: -0.009 | inactive: 0.012
CDK19 (UniProt Q9BWU1) | inactive: 0.205 | inactive: 0.063 | inactive: -0.052 | inactive: -0.505 | inactive: -0.008 | inactive: -0.121 | inactive: 0.413 | inactive: 0.034 | inactive: -0.314 | inactive: -0.105 | inactive: 0.154 | inactive: -0.084 | inactive: 0.187 | inactive: -0.038 | inactive: 0.147
CFL1 (UniProt P23528) | inactive: 0.028 | inactive: 0.004 | inactive: 0.038 | inactive: 0.024 | inactive: 0.018 | inactive: 0.07 | inactive: 0.04 | inactive: -0.031 | inactive: -0.008 | inactive: 0.031 | inactive: -0.011 | inactive: 0.059 | inactive: -0.01 | inactive: -0.006 | inactive: 0.02
CDK12 (UniProt Q9NYV4) | inactive: -0.013 | inactive: -0.032 | inactive: 0.009 | inactive: 0.068 | inactive: -0.007 | inactive: -0.007 | inactive: -0.025 | inactive: -0.021 | inactive: -0.005 | inactive: -0.01 | inactive: 0.041 | inactive: -0.065 | inactive: -0.04 | inactive: 0.098 | inactive: -0.04
CEP97 (UniProt Q8IW35) | inactive: 0.007 | inactive: -0.015 | inactive: -0.055 | inactive: 0.005 | inactive: 0.023 | inactive: -0.108 | inactive: -0.029 | inactive: 0.016 | inactive: 0.003 | inactive: -0.033 | inactive: -0.056 | inactive: -0.135 | inactive: 0.021 | inactive: 0.007 | inactive: 0
CERS6 isoform 2 (UniProt Q6ZMG9) | inactive: 0.1 | inactive: -0.225 | inactive: 0.06 | inactive: 0 | inactive: -0.101 | inactive: 0.037 | inactive: -0.087 | inactive: -0.048 | inactive: -0.028 | inactive: 0.004 | inactive: -0.018 | inactive: -0.192 | inactive: -0.127 | inactive: -0.008 | inactive: 0.037
CENPK (UniProt Q9BS16) | inactive: -0.011 | inactive: -0.004 | inactive: 0.01 | inactive: 0.01 | inactive: -0.008 | inactive: -0.007 | inactive: 0.001 | inactive: 0.015 | inactive: 0.043 | inactive: 0.006 | inactive: 0.132 | inactive: 0.031 | inactive: -0.022 | inactive: -0.02 | inactive: 0
CDC20 (UniProt Q12834) | inactive: 0.1 | inactive: -0.101 | inactive: -0.044 | inactive: -0.088 | inactive: 0.017 | inactive: -0.082 | inactive: -0.035 | inactive: -0.01 | inactive: -0.143 | inactive: 0.061 | inactive: 0.067 | inactive: -0.178 | inactive: 0.049 | inactive: -0.028 | inactive: 0.004
CFAP36 (UniProt Q96G28) | inactive: -0.037 | inactive: -0.002 | inactive: 0 | inactive: -0.022 | inactive: -0.041 | inactive: 0.066 | inactive: 0.005 | inactive: -0.024 | inactive: 0.001 | inactive: -0.007 | inactive: 0.02 | inactive: 0.042 | inactive: -0.075 | inactive: -0.007 | inactive: 0.009
CERT isoform 3 (UniProt Q9Y5P4) | inactive: -0.015 | inactive: -0.03 | inactive: -0.012 | inactive: -0.023 | inactive: 0.036 | inactive: -0.004 | inactive: 0.019 | inactive: 0.013 | inactive: 0.014 | inactive: -0.016 | inactive: -0.012 | inactive: -0.002 | inactive: 0.01 | inactive: -0.036 | inactive: 0.015
CDK16 isoform 2 (UniProt Q00536) | inactive: 0.043 | inactive: 0.412 | inactive: 0.033 | active: 0.433 | inactive: -0.033 | inactive: -0.044 | inactive: -0.01 | inactive: -0.016 | inactive: 0.081 | inactive: -0.124 | inactive: 0.006 | inactive: 0.055 | active: 0.446 | active: 0.603 | inactive: -0.05
CEP350 (UniProt Q5VT06) | inactive: -0.015 | inactive: -0.014 | inactive: -0.052 | inactive: -0.03 | inactive: -0.003 | inactive: 0.102 | inactive: 0.035 | inactive: 0.014 | inactive: 0.01 | inactive: 0.006 | inactive: 0.02 | inactive: 0.219 | inactive: 0 | inactive: -0.053 | inactive: -0.032
CELF2 isoform 3 (UniProt O95319) | inactive: 0.054 | inactive: 0.038 | inactive: -0.015 | inactive: -0.028 | inactive: -0.043 | inactive: 0.036 | inactive: -0.129 | inactive: -0.037 | inactive: -0.021 | inactive: 0.068 | inactive: 0.036 | inactive: -0.028 | inactive: -0.012 | inactive: -0.041 | inactive: 0.033
CDK5RAP2 (UniProt Q96SN8) | inactive: 0.024 | inactive: -0.009 | inactive: -0.002 | inactive: 0.056 | inactive: -0.015 | inactive: -0.081 | inactive: -0.011 | inactive: -0.006 | inactive: -0.104 | inactive: -0.001 | inactive: 0.042 | inactive: -0.156 | inactive: 0 | inactive: 0.026 | inactive: -0.042
CEP44 (UniProt Q9C0F1) | inactive: -0.011 | inactive: 0.007 | inactive: 0.023 | inactive: -0.022 | inactive: -0.013 | inactive: 0.016 | inactive: 0.007 | inactive: 0.011 | inactive: 0.017 | inactive: 0.033 | inactive: -0.043 | inactive: 0.001 | inactive: 0.003 | inactive: 0.003 | inactive: -0.024
CDKN2C (UniProt P42773) | inactive: 0.068 | inactive: 0.1 | inactive: 0.022 | inactive: 0.175 | inactive: 0.055 | inactive: 0.014 | inactive: 0.08 | inactive: -0.075 | inactive: -0.04 | inactive: 0.065 | inactive: -0.062 | inactive: 0.119 | inactive: 0.01 | inactive: 0.045 | inactive: -0.113

Reprinted at random: 2 entries already listed
Target | log2 fold change [1] | log2 fold change [2] | log2 fold change [3] | log2 fold change [4] | log2 fold change [5] | log2 fold change [6] | log2 fold change [7] | log2 fold change [8] | log2 fold change [9] | log2 fold change [10] | log2 fold change [11] | log2 fold change [12] | log2 fold change [13] | log2 fold change [14] | log2 fold change [15]
CFL1 (UniProt P23528) | inactive: 0.028 | inactive: 0.004 | inactive: 0.038 | inactive: 0.024 | inactive: 0.018 | inactive: 0.07 | inactive: 0.04 | inactive: -0.031 | inactive: -0.008 | inactive: 0.031 | inactive: -0.011 | inactive: 0.059 | inactive: -0.01 | inactive: -0.006 | inactive: 0.02
CDC20 (UniProt Q12834) | inactive: 0.1 | inactive: -0.101 | inactive: -0.044 | inactive: -0.088 | inactive: 0.017 | inactive: -0.082 | inactive: -0.035 | inactive: -0.01 | inactive: -0.143 | inactive: 0.061 | inactive: 0.067 | inactive: -0.178 | inactive: 0.049 | inactive: -0.028 | inactive: 0.004
